Laboratory results: publication PMC10744108
These are yes or no findings as the source states them, for the method shown. Binding seen in cells or lysates may run through a third protein. Some binding calls cover weakened binding; strength is not graded here. Tags and fused reporters may be left off the sequences shown.

T1: eYFP-SANS (USH1G protein SANS, scaffold protein containing ankyrin repeats and SAM domain) (human) (UniProt Q495M9)
T1 sequence: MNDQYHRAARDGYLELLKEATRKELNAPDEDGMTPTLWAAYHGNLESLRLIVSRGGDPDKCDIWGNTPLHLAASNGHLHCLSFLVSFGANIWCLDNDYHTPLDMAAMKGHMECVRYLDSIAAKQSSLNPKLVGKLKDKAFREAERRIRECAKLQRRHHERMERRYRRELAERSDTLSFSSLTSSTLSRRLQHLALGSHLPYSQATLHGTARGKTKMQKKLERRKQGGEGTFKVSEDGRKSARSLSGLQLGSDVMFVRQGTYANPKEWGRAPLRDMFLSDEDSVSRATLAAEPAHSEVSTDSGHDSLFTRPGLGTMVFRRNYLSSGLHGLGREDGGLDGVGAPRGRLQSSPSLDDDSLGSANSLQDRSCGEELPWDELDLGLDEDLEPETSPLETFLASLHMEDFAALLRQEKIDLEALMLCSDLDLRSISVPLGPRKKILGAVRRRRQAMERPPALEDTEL


Assays:
[1] = target: T1, eYFP-SANS (USH1G protein SANS, scaffold protein containing ankyrin repeats and SAM domain) (human); assay: FRET or BRET; FRET acceptor photobleaching in fixed, co-transfected HEK293T cells; eCFP donor, eYFP acceptor; measured in the nucleus (harmonin pair in the cytoplasm); efficiencies normalised to the fused eCFP-c-eYFP pair where indicated
[2] = target: T1, eYFP-SANS (USH1G protein SANS, scaffold protein containing ankyrin repeats and SAM domain) (human); assay: FRET or BRET; FRET acceptor photobleaching in fixed HEK293T cells, eCFP-eYFP pair with a third protein co-expressed (mRFP-SANS, PRPF6-mCherry or mRFP-PRPF31; mRFP alone as control)

| binding [1] | binding [2] | Binder |
| --- | --- | --- |
| binds |  | harmonin-eCFP (USH1C protein harmonin) (protein, UniProt Q9Y6N9 1-552) MDRKVAREFRHKVDFLIENDAEKDYLYDVLRMYHQTMDVAVLVGDLKLVINEPSRLPLFDAIRPLIPLKHQVEYDQLTPRRSRKLKEVRLDRLHPEGLGLSVRGGLEFGCGLFISHLIKGGQADSVGLQVGDEIVRINGYSISSCTHEEVINLIRTKKTVSIKVRHIGLIPVKSSPDEPLTWQYVDQFVSESGGVRGSLGSPGNRENKEKKVFISLVGSRGLGCSISSGPIQKPGIFISHVKPGSLSAEVGLEIGDQIVEVNGVDFSNLDHKEAVNVLKSSRSLTISIVAAAGRELFMTDRERLAEARQRELQRQELLMQKRLAMESNKILQEQQEMERQRRKEIAQKAAEENERYRKEMEQIVEEEEKFKKQWEEDWGSKEQLLLPKTITAEVHPVPLRKPKYDQGVEPELEPADDLDGGTEEQGEQDFRKYEEGFDPYSMFTPEQIMGKDVRLLRIKKEGSLDLALEGGVDSPIGKVVVSAVYERGAAERHGGIVKGDEIMAINGKIVTDYTLAEAEAALQKAWNQGGDWIDLVVAVCPPKEYDDELTFF |
| no binding |  | eCFP-PRPF3 (protein, UniProt O43395 1-683) MALSKRELDELKPWIEKTVKRVLGFSEPTVVTAALNCVGKGMDKKKAADHLKPFLDDSTLRFVDKLFEAVEEGRSSRHSKSSSDRSRKRELKEVFGDDSEISKESSGVKKRRIPRFEEVEEEPEVIPGPPSESPGMLTKLQIKQMMEAATRQIEERKKQLSFISPPTPQPKTPSSSQPERLPIGNTIQPSQAATFMNDAIEKARKAAELQARIQAQLALKPGLIGNANMVGLANLHAMGIAPPKVELKDQTKPTPLILDEQGRTVDATGKEIELTHRMPTLKANIRAVKREQFKQQLKEKPSEDMESNTFFDPRVSIAPSQRQRRTFKFHDKGKFEKIAQRLRTKAQLEKLQAEISQAARKTGIHTSTRLALIAPKKELKEGDIPEIEWWDSYIIPNGFDLTEENPKREDYFGITNLVEHPAQLNPPVDNDTPVTLGVYLTKKEQKKLRRQTRREAQKELQEKVRLGLMPPPEPKVRISNLMRVLGTEAVQDPTKVEAHVRAQMAKRQKAHEEANAARKLTAEQRKVKKIKKLKEDISQGVHISVYRVRNLSNPAKKFKIEANAGQLYLTGVVVLHKDVNVVVVEGGPKAQKKFKRLMLHRIKWDEQTSNTKGDDDEESDEEAVKKTNKCVLVWEGTAKDRSFGEMKFKQCPTENMAREHFKKHGAEHYWDLALSESVLESTD |
| binds | binds | PRPF6-eCFP (pre-mRNA processing factor PRPF6) (protein, UniProt O94906 1-941) MNKKKKPFLGMPAPLGYVPGLGRGATGFTTRSDIGPARDANDPVDDRHAPPGKRTVGDQMKKNQAADDDDEDLNDTNYDEFNGYAGSLFSSGPYEKDDEEADAIYAALDKRMDERRKERREQREKEEIEKYRMERPKIQQQFSDLKRKLAEVTEEEWLSIPEVGDARNKRQRNPRYEKLTPVPDSFFAKHLQTGENHTSVDPRQTQFGGLNTPYPGGLNTPYPGGMTPGLMTPGTGELDMRKIGQARNTLMDMRLSQVSDSVSGQTVVDPKGYLTDLNSMIPTHGGDINDIKKARLLLKSVRETNPHHPPAWIASARLEEVTGKLQVARNLIMKGTEMCPKSEDVWLEAARLQPGDTAKAVVAQAVRHLPQSVRIYIRAAELETDIRAKKRVLRKALEHVPNSVRLWKAAVELEEPEDARIMLSRAVECCPTSVELWLALARLETYENARKVLNKARENIPTDRHIWITAAKLEEANGNTQMVEKIIDRAITSLRANGVEINREQWIQDAEECDRAGSVATCQAVMRAVIGIGIEEEDRKHTWMEDADSCVAHNALECARAIYAYALQVFPSKKSVWLRAAYFEKNHGTRESLEALLQRAVAHCPKAEVLWLMGAKSKWLAGDVPAARSILALAFQANPNSEEIWLAAVKLESENDEYERARRLLAKARSSAPTARVFMKSVKLEWVQDNIRAAQDLCEEALRHYEDFPKLWMMKGQIEEQKEMMEKAREAYNQGLKKCPHSTPLWLLLSRLEEKIGQLTRARAILEKSRLKNPKNPGLWLESVRLEYRAGLKNIANTLMAKALQECPNSGILWSEAIFLEARPQRRTKSVDALKKCEHDPHVLLAVAKLFWSQRKITKAREWFHRTVKIDSDLGDAWAFFYKFELQHGTEEQQEEVRKRCESAEPRHGELWCAVSKDIANWQKKIGDILRLVAGRIKNTF |
